Data taken from the supplement of paper PMC6411743.
± gives the standard deviation of the averaged measurements. This is a selection; strong and weak results do not stand in their true shares.

Sequences of proteins named here, by UniProt entry; tags and fusion partners are left off. A change or cut given only in a name is not applied to a line headed by its entry.
UniProt Q8IVD9: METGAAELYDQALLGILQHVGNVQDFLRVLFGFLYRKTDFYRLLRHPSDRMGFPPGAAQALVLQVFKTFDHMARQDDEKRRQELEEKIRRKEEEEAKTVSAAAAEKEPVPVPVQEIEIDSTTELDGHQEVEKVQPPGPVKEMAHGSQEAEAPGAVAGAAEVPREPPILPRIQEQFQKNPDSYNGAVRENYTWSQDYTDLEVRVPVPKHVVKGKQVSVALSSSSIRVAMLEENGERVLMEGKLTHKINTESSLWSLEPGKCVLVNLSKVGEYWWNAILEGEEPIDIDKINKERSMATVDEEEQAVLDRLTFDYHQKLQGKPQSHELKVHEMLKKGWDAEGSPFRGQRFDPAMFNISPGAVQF
UniProt Q8NBS9: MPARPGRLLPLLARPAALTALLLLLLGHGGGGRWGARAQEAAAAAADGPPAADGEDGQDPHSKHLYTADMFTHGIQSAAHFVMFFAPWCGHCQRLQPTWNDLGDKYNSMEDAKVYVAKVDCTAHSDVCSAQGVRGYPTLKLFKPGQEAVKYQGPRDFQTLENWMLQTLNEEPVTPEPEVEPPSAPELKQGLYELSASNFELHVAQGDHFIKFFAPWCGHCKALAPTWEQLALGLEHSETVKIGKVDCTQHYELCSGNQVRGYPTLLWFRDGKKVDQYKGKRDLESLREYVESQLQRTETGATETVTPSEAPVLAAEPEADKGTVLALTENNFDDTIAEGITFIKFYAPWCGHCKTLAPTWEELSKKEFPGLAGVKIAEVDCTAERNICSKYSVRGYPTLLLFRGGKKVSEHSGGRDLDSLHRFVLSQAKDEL
UniProt Q8NHY2, whole entry: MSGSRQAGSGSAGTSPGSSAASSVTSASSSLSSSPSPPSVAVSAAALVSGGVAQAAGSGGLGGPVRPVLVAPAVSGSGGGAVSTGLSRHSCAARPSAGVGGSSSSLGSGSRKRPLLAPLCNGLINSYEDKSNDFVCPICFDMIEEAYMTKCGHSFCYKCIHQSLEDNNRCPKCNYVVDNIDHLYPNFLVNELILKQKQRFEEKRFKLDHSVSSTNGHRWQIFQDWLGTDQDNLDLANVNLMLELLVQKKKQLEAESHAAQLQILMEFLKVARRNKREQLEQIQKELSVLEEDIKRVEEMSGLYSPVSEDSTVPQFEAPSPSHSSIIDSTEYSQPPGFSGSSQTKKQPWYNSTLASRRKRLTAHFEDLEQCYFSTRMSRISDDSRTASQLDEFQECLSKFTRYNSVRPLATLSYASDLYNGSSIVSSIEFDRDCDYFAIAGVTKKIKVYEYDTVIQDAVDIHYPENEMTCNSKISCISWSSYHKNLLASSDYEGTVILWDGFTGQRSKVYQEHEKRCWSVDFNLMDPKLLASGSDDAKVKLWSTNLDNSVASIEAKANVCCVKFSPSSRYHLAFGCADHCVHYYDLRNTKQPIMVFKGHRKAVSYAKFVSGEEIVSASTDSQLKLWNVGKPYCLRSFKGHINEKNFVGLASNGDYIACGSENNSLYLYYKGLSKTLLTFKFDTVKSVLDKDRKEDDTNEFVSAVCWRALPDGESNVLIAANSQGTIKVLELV
UniProt Q8NC51: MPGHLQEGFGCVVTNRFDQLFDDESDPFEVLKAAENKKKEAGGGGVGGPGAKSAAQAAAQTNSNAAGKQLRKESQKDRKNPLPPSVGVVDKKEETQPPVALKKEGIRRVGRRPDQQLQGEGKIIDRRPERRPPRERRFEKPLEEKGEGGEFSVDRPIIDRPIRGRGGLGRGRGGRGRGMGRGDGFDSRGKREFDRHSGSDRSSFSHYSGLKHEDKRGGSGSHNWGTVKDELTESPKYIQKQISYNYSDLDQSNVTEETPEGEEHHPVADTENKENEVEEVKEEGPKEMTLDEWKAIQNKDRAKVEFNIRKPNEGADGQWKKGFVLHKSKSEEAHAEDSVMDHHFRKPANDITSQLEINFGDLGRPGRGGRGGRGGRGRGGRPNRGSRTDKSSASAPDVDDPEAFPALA
UniProt Q8N371: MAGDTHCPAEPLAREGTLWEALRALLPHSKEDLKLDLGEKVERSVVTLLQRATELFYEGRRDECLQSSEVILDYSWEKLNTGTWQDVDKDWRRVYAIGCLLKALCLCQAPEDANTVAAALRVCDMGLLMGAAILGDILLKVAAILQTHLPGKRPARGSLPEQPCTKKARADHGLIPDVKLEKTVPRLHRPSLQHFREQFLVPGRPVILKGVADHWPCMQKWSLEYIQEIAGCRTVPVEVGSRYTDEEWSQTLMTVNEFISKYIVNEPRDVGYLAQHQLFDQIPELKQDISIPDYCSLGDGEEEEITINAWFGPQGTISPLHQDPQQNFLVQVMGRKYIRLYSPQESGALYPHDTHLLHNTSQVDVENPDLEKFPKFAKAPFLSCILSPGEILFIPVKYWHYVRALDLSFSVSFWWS
UniProt Q8TB03: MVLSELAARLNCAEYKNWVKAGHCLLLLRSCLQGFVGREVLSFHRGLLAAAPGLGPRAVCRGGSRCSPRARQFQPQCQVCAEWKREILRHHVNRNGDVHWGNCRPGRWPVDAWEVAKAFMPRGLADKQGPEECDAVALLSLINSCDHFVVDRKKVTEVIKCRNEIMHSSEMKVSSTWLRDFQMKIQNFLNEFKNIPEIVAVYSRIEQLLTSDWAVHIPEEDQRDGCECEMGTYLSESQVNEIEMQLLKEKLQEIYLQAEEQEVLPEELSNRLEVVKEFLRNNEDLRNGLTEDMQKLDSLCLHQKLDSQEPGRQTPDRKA
UniProt Q8TAC1: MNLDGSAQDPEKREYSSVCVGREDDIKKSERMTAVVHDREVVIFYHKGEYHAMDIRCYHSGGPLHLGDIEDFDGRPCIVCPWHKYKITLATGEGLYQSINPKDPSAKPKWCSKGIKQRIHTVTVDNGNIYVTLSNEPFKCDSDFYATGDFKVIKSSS
UniProt Q8N465: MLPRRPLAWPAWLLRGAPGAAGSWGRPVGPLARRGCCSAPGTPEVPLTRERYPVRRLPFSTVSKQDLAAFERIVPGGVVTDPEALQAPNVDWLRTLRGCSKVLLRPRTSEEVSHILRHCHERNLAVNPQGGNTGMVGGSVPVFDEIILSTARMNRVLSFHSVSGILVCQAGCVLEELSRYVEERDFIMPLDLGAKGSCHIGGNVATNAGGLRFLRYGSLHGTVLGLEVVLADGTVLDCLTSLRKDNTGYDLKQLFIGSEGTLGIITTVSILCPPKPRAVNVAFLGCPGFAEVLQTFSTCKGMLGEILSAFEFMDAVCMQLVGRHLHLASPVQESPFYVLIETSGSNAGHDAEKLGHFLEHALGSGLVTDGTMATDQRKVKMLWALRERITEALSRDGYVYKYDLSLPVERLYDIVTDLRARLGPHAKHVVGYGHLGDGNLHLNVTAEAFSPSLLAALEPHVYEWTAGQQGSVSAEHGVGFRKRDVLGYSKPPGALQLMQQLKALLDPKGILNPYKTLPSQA
UniProt Q8N5G2: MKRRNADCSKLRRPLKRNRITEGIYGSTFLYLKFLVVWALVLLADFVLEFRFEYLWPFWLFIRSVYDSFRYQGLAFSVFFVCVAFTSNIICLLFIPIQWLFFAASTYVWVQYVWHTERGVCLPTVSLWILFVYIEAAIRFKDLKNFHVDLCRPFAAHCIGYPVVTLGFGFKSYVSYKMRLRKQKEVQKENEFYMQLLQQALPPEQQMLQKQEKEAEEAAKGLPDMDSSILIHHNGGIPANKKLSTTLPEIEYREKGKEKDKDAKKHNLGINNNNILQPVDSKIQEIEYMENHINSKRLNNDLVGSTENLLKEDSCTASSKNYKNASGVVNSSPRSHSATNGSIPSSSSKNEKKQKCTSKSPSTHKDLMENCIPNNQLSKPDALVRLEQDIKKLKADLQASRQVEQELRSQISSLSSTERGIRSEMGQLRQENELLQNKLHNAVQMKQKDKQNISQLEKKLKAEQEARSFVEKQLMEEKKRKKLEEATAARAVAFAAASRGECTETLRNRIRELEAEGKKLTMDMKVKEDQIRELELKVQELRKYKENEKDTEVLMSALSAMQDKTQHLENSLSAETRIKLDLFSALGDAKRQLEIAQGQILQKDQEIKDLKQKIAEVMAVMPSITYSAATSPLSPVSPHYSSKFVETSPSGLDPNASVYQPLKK
UniProt Q8N4S0: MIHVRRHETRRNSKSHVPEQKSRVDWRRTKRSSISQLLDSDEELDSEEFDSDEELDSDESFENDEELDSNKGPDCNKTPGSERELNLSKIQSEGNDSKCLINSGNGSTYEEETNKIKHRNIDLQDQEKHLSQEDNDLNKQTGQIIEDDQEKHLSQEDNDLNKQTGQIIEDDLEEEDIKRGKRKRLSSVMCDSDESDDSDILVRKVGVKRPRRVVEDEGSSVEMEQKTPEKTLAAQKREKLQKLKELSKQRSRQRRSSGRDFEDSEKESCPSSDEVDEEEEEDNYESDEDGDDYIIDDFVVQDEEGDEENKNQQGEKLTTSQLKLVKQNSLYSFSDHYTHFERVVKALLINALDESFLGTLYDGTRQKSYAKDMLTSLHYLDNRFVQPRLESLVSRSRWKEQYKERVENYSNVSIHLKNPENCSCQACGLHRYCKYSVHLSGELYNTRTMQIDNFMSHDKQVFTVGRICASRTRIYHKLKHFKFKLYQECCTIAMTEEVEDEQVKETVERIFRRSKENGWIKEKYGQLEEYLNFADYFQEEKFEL
UniProt Q8IWS0: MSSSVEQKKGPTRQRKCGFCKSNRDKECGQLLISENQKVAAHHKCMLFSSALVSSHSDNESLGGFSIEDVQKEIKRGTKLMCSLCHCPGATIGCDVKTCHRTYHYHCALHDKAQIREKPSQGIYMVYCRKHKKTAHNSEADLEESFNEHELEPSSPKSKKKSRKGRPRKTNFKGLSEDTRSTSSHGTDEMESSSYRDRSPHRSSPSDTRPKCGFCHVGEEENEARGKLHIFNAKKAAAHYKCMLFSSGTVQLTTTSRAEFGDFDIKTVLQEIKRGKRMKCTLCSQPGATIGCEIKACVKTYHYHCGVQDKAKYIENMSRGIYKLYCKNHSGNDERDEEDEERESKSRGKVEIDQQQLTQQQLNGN
UniProt Q8TAP8: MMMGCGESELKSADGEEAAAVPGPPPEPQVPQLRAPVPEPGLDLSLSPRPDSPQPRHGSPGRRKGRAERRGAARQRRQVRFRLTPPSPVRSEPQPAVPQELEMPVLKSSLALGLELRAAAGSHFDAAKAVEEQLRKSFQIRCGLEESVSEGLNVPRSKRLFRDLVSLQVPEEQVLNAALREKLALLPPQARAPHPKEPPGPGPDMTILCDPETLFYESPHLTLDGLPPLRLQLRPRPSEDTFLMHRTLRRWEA
UniProt Q8NHG8: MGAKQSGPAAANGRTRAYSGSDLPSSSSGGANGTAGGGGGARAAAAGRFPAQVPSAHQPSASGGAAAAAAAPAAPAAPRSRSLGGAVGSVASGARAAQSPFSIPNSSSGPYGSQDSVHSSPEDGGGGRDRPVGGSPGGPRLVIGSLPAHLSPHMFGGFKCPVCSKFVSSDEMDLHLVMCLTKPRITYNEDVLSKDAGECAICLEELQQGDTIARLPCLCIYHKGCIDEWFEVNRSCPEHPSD
UniProt Q8IWT0: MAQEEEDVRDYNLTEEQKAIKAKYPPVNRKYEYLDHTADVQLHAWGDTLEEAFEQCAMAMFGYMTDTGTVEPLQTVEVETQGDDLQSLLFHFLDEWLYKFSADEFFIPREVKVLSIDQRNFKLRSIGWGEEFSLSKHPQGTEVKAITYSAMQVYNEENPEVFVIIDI
UniProt Q8NBA8: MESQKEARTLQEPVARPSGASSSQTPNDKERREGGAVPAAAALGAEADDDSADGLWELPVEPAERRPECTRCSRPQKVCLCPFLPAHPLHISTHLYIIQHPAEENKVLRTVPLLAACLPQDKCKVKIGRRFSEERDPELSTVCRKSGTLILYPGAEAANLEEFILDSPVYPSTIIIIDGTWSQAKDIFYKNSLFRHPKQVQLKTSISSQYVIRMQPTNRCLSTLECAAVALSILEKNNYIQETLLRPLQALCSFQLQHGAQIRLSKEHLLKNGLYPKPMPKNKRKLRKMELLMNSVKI
UniProt Q8IY95: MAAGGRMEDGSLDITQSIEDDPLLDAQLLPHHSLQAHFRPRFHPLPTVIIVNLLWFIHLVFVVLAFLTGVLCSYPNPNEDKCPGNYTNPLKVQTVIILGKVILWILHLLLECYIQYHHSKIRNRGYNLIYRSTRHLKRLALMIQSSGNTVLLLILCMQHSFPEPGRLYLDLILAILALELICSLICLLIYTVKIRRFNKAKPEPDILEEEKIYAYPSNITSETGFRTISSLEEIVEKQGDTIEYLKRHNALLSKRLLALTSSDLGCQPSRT
UniProt Q8NFH5: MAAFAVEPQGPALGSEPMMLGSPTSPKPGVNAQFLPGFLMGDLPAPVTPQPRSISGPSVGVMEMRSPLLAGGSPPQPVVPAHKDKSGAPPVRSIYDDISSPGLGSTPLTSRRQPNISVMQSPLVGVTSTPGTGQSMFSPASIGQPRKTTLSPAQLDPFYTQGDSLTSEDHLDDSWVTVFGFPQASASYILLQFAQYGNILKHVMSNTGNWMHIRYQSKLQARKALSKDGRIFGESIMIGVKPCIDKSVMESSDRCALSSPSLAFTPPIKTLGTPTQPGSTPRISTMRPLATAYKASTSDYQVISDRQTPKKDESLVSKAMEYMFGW

Compound: Nc1ncnc2c1ncn2[C@@H]1O[C@H](COP(=O)(O)OP(=O)(O)OP(=O)(O)O)[C@@H](O)[C@H]1O [adenosine triphosphate]
Test: NP40-soluble protein abundance relative to vehicle (solubility fold change) (ratio); higher = more soluble protein in presence of ATP
In short: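 Across three independent experiments, values are fold changes against the detergent-processed vehicle for each replicate, based on vsn-normalised intensities. The samples were Jurkat crude lysate treated with eight concentrations (0.1 to 10 mM) for 10 min at room temperature and then 3 min at 37 °C. Lysate was solubilised with 0.8% NP40 and benzonase, ultracentrifuged, and the supernatant analysed by TMT-labelled LC-MS/MS.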

Target	NP40-soluble protein abundance (concentration: 1mM)	NP40-soluble protein abundance (concentration: 2mM)	NP40-soluble protein abundance (concentration: 4mM)	NP40-soluble protein abundance (concentration: 6mM)	NP40-soluble protein abundance (concentration: 8mM)	NP40-soluble protein abundance (concentration: 10mM)
ENGASE (UniProt Q8NFI3)	1.03 ± 0.097	1.08 ± 0.047	1.09 ± 0.017	1.03 ± 0.048	1.08 ± 0.02	1.07 ± 0.038
NUDCD3 (UniProt Q8IVD9)	0.946 ± 0.017	0.9432 ± 0.0054	0.921 ± 0.011	0.932 ± 0.016	0.909 ± 0.03	0.913 ± 0.039
TXNDC5 (UniProt Q8NBS9)	0.974 ± 0.069	0.977 ± 0.03	0.951 ± 0.055	1.01 ± 0.064	0.956 ± 0.027	0.939 ± 0.024
UniProt Q8NG31 and related entries	1.03 ± 0.021	1.015 ± 0.0095	1.02 ± 0.017	1.02 ± 0.061	1.01 ± 0.013	1.01 ± 0.033
UniProt Q8NHY2 and related entries	0.989 ± 0.08	0.947 ± 0.055	0.978 ± 0.071	0.894 ± 0.14	0.972 ± 0.088	0.992 ± 0.085
UniProt Q8NC51 and related entries	1.03 ± 0.078	1.04 ± 0.06	1.07 ± 0.055	1.21 ± 0.089	1.16 ± 0.029	1.26 ± 0.051
UniProt Q8N371	1.06 ± 0.055	1.09 ± 0.051	1.05 ± 0.02	1.01 ± 0.028	1.03 ± 0.1	1.05 ± 0.077
INTS1 (UniProt Q8N201)	1.06 ± 0.032	1.07 ± 0.043	1.131 ± 0.0082	1.08 ± 0.048	1.21 ± 0.071	1.21 ± 0.06
UniProt Q8IZM8	0.978 ± 0.048	1.01 ± 0.015	0.987 ± 0.023	1.03 ± 0.058	0.963 ± 0.029	1.01 ± 0.038
UniProt Q8N6G5 and related entries	1.01 ± 0.084	0.924 ± 0.048	0.907 ± 0.057	0.922 ± 0.034	0.964 ± 0.091	0.876 ± 0.05
UniProt Q8IWV8 and related entries	1.08 ± 0.078	1.04 ± 0.098	1.04 ± 0.064	0.967 ± 0.071	1.05 ± 0.053	1 ± 0.057
CXorf38 (UniProt Q8TB03)	0.97 ± 0.035	0.968 ± 0.015	0.97 ± 0.018	0.94 ± 0.047	0.929 ± 0.038	0.947 ± 0.032
MOSPD2 (UniProt Q8NHP6)	0.991 ± 0.11	0.954 ± 0.088	0.984 ± 0.12	0.972 ± 0.09	0.992 ± 0.089	0.978 ± 0.074
UniProt Q8TAC1 and related entries	1.03 ± 0.031	1.12 ± 0.049	1.07 ± 0.08	1.12 ± 0.076	1.04 ± 0.034	1.09 ± 0.038
ANKRD44 (UniProt Q8N8A2)	0.985 ± 0.086	0.952 ± 0.029	0.973 ± 0.056	0.965 ± 0.046	1 ± 0.07	0.982 ± 0.043
UniProt Q8NEZ2 and related entries	0.952 ± 0.015	0.966 ± 0.034	0.94 ± 0.043	0.9798 ± 0.0046	0.935 ± 0.017	0.896 ± 0.085
ZC3H7A (UniProt Q8IWR0)	1.09 ± 0.065	1.13 ± 0.036	1.21 ± 0.038	1.18 ± 0.075	1.21 ± 0.071	1.21 ± 0.052
D2HGDH (UniProt Q8N465)	0.959 ± 0.023	1.03 ± 0.029	0.963 ± 0.038	0.983 ± 0.053	0.939 ± 0.026	0.969 ± 0.039
UniProt Q8N0X7	1.03 ± 0.041	0.996 ± 0.015	0.986 ± 0.06	1.019 ± 0.0088	0.983 ± 0.021	1.01 ± 0.022
UniProt Q8N5G2	0.995 ± 0.076	1.07 ± 0.11	1.08 ± 0.12	1.13 ± 0.13	1.1 ± 0.14	1.15 ± 0.18

Target	NP40-soluble protein abundance (concentration: 1mM)	NP40-soluble protein abundance (concentration: 2mM)	NP40-soluble protein abundance (concentration: 4mM)	NP40-soluble protein abundance (concentration: 6mM)	NP40-soluble protein abundance (concentration: 8mM)	NP40-soluble protein abundance (concentration: 10mM)
RCOR2 (UniProt Q8IZ40)	0.952 ± 0.029	0.945 ± 0.0042	0.9376 ± 0.0055	1 ± 0.022	0.961 ± 0.041	1.01 ± 0.016
HSCB (UniProt Q8IWL3)	0.908 ± 0.094	0.935 ± 0.031	0.993 ± 0.14	0.858 ± 0.052	1.01 ± 0.024	0.957 ± 0.11
WDFY1 (UniProt Q8IWB7)	1.05 ± 0.11	1.02 ± 0.11	0.995 ± 0.13	0.926 ± 0.11	1.02 ± 0.097	0.982 ± 0.065
CCDC82 (UniProt Q8N4S0)	0.708 ± 0.074	0.745 ± 0.039	0.719 ± 0.058	0.801 ± 0.069	0.77 ± 0.059	0.815 ± 0.05
UniProt Q8NHP8 and related entries	0.878 ± 0.018	0.946 ± 0.075	0.92 ± 0.049	0.872 ± 0.049	0.88 ± 0.017	0.909 ± 0.037
GUF1 (UniProt Q8N442)	1.09 ± 0.15	1.09 ± 0.015	1.11 ± 0.13	1.17 ± 0.097	1.13 ± 0.056	1.2 ± 0.066
UniProt Q8IWS0 and related entries	1.06 ± 0.033	1.11 ± 0.012	1.101 ± 0.0072	1.16 ± 0.081	1.15 ± 0.034	1.16 ± 0.088
TTL (UniProt Q8NG68)	1.07 ± 0.09	1 ± 0.071	1.13 ± 0.019	0.991 ± 0.092	1.07 ± 0.017	0.998 ± 0.054
UniProt Q8IWA5-2	0.94 ± 0.035	0.977 ± 0.013	0.926 ± 0.048	0.946 ± 0.062	0.899 ± 0.038	0.914 ± 0.022
PPTC7 (UniProt Q8NI37)	0.907 ± 0.14	0.93 ± 0.1	0.934 ± 0.12	0.909 ± 0.1	0.997 ± 0.063	0.889 ± 0.15
KRI1 (UniProt Q8N9T8)	1.04 ± 0.027	1.026 ± 0.0047	1.08 ± 0.015	1.19 ± 0.029	1.2 ± 0.052	1.28 ± 0.053
ASCC3 (UniProt Q8N3C0)	0.987 ± 0.043	0.978 ± 0.032	1.05 ± 0.048	1.07 ± 0.053	1.17 ± 0.018	1.32 ± 0.04
LEMD2 (UniProt Q8NC56)	1.38 ± 0.092	1.42 ± 0.084	1.44 ± 0.12	1.5 ± 0.072	1.47 ± 0.097	1.47 ± 0.05
UniProt Q8NFD5 and related entries	1 ± 0.023	1.01 ± 0.038	1.03 ± 0.061	1.07 ± 0.12	1.04 ± 0.08	1.05 ± 0.059
PPP1R35 (UniProt Q8TAP8)	0.861 ± 0.12	0.902 ± 0.031	0.958 ± 0.022	0.941 ± 0.06	0.956 ± 0.17	0.856 ± 0.026
ZNRF2 (UniProt Q8NHG8)	0.937 ± 0.046	0.897 ± 0.067	0.921 ± 0.054	0.931 ± 0.076	0.857 ± 0.054	0.861 ± 0.062
GCC2 (UniProt Q8IWJ2)	0.971 ± 0.03	0.971 ± 0.01	0.963 ± 0.017	0.9999 ± 0.0089	0.9388 ± 0.0063	0.9413 ± 0.0072
UniProt Q8IVS2	1.01 ± 0.068	1.06 ± 0.075	1.08 ± 0.026	1.06 ± 0.055	1.08 ± 0.089	1.09 ± 0.09
PDPR (UniProt Q8NCN5)	1.03 ± 0.11	1.01 ± 0.085	1.02 ± 0.085	0.929 ± 0.12	1.03 ± 0.033	0.992 ± 0.053
UniProt Q8IXQ6-2|Q8IXQ6-3	1.08 ± 0.041	1.09 ± 0.015	1.09 ± 0.048	1.1 ± 0.05	1.149 ± 0.0082	1.136 ± 0.0097

Exported as labelled records: entries from further up.
ENGASE (UniProt Q8NFI3)
  NP40-soluble protein abundance (concentration: 1mM): 1.03 ± 0.097
  NP40-soluble protein abundance (concentration: 2mM): 1.08 ± 0.047
  NP40-soluble protein abundance (concentration: 4mM): 1.09 ± 0.017
  NP40-soluble protein abundance (concentration: 6mM): 1.03 ± 0.048
  NP40-soluble protein abundance (concentration: 8mM): 1.08 ± 0.02
  NP40-soluble protein abundance (concentration: 10mM): 1.07 ± 0.038
UniProt Q8NG31 and related entries
  NP40-soluble protein abundance (concentration: 1mM): 1.03 ± 0.021
  NP40-soluble protein abundance (concentration: 2mM): 1.015 ± 0.0095
  NP40-soluble protein abundance (concentration: 4mM): 1.02 ± 0.017
  NP40-soluble protein abundance (concentration: 6mM): 1.02 ± 0.061
  NP40-soluble protein abundance (concentration: 8mM): 1.01 ± 0.013
  NP40-soluble protein abundance (concentration: 10mM): 1.01 ± 0.033
MOSPD2 (UniProt Q8NHP6)
  NP40-soluble protein abundance (concentration: 1mM): 0.991 ± 0.11
  NP40-soluble protein abundance (concentration: 2mM): 0.954 ± 0.088
  NP40-soluble protein abundance (concentration: 4mM): 0.984 ± 0.12
  NP40-soluble protein abundance (concentration: 6mM): 0.972 ± 0.09
  NP40-soluble protein abundance (concentration: 8mM): 0.992 ± 0.089
  NP40-soluble protein abundance (concentration: 10mM): 0.978 ± 0.074

Going on with the list.

Target	NP40-soluble protein abundance (concentration: 1mM)	NP40-soluble protein abundance (concentration: 2mM)	NP40-soluble protein abundance (concentration: 4mM)	NP40-soluble protein abundance (concentration: 6mM)	NP40-soluble protein abundance (concentration: 8mM)	NP40-soluble protein abundance (concentration: 10mM)
UniProt Q8NB37	0.997 ± 0.14	0.965 ± 0.16	0.964 ± 0.078	0.971 ± 0.12	0.892 ± 0.1	0.927 ± 0.022
UniProt Q8NDI1-2|Q8NDI1-3|Q8NDI1	0.969 ± 0.015	0.951 ± 0.032	0.911 ± 0.041	0.964 ± 0.033	0.91 ± 0.056	0.914 ± 0.065
ZBTB8OS (UniProt Q8IWT0)	1.13 ± 0.23	1.03 ± 0.094	1.09 ± 0.24	1.06 ± 0.17	1.08 ± 0.24	0.972 ± 0.041
DTWD2 (UniProt Q8NBA8)	1.06 ± 0.076	0.98 ± 0.084	1.02 ± 0.13	0.969 ± 0.1	0.916 ± 0.12	0.966 ± 0.053
UniProt Q8NCD3 and related entries	0.97 ± 0.067	0.925 ± 0.1	1.03 ± 0.13	1.05 ± 0.18	1.03 ± 0.064	1.04 ± 0.1
GALNT6 (UniProt Q8NCL4)	0.954 ± 0.084	0.915 ± 0.11	0.982 ± 0.038	0.9823 ± 0.0019	0.971 ± 0.063	1.07 ± 0.018
UBAC2 (UniProt Q8NBM4)	0.999 ± 0.057	0.971 ± 0.022	0.989 ± 0.021	0.972 ± 0.037	1.01 ± 0.019	1.01 ± 0.022
UniProt Q8N1K5 and related entries	1.05 ± 0.13	0.999 ± 0.12	0.986 ± 0.11	0.942 ± 0.13	1.02 ± 0.073	0.986 ± 0.082
LZTR1 (UniProt Q8N653)	0.994 ± 0.076	0.8911 ± 0.0029	0.924 ± 0.069	0.861 ± 0.08	0.921 ± 0.07	0.857 ± 0.022
UniProt Q8IY95 and related entries	0.988 ± 0.096	0.995 ± 0.042	0.957 ± 0.071	0.918 ± 0.078	0.979 ± 0.068	0.951 ± 0.05
NUP43 (UniProt Q8NFH3)	1.03 ± 0.081	1.06 ± 0.081	1.04 ± 0.088	0.967 ± 0.13	1.04 ± 0.12	1.01 ± 0.071
LMTK2 (UniProt Q8IWU2)	1 ± 0.3	1.05 ± 0.23	1.01 ± 0.13	0.905 ± 0.23	0.987 ± 0.02	1.08 ± 0.079
UniProt Q8N2Z9	0.922 ± 0.11	0.865 ± 0.2	0.97 ± 0.09	0.975 ± 0.09	0.933 ± 0.13	0.883 ± 0.16
SMYD4 (UniProt Q8IYR2)	0.971 ± 0.042	1.02 ± 0.026	1.01 ± 0.039	1.05 ± 0.066	0.964 ± 0.011	0.957 ± 0.044
UniProt Q8NFH5 and related entries	1.13 ± 0.19	1.081 ± 0.0023	1.1 ± 0.054	1.11 ± 0.043	1.03 ± 0.025	1.14 ± 0.062
CMIP (UniProt Q8IY22)	0.991 ± 0.12	1.03 ± 0.074	1.01 ± 0.12	1.05 ± 0.077	1.04 ± 0.067	1.01 ± 0.075
UniProt Q8NC44	0.99 ± 0.096	0.98 ± 0.073	0.99 ± 0.057	0.955 ± 0.1	0.913 ± 0.078	0.942 ± 0.085
UniProt Q8NBJ4 and related entries	0.892 ± 0.1	0.921 ± 0.041	0.99 ± 0.051	0.964 ± 0.11	0.893 ± 0.062	0.839 ± 0.084
UniProt Q8TB61 and related entries	0.958 ± 0.032	0.96 ± 0.031	1.01 ± 0.013	0.917 ± 0.026	1 ± 0.015	0.995 ± 0.072
GPD1L (UniProt Q8N335)	0.927 ± 0.031	0.95 ± 0.049	0.939 ± 0.045	0.932 ± 0.066	0.91 ± 0.035	0.935 ± 0.054
